Measured data: PubChem BioAssay AID1259405 (NCATS, 2018)

Screen: 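Knock-downs that lift recombinant protein yield in hamster ovary cells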 (primary screen)
Cells: Chinese hamster CHO-K1 ovary cells with stable secreted eGFP expression
Reagents: single siRNA against mouse genes, 0.8 pmol siRNA per well (2 µl of 400 nM stock)
Duration: 3 days
Read-out: 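Percent of the per-plate non-targeting control median for intracellular GFP per well by laser scanning cytometry and for cell viability by ATP luminescence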
Scale: GFP, % of control: higher = more GFP per well, higher productivity; viability (ATP), % of control: higher = more viable cells (more ATP)
Call rule: 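a knock-down is called active if GFP reaches 120% or more of non-targeting control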
This is a random part of about 50,000 reagents tested. About 4,000 of all reagents (8%) count as active. 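Mouse siRNA library applied to hamster cells; one well for each siRNA.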 Reagents against one gene are numbered here.

The first 3 entries, ahead of the listing:
gene symbol | siRNA no. | GFP, % of control | viability (ATP), % of control | Outcome
1700029F12Rik | 1 | 156 | 55.4 | active
1700029F12Rik | 2 | 36.2 | 72 | inactive
1700029F12Rik | 3 | 83.2 | 94.9 | inactive

The listing, from the first entry:
gene symbol | siRNA no. | GFP, % of control | viability (ATP), % of control | Outcome
1700029F12Rik | 1 | 156 | 55.4 | active
1700029F12Rik | 2 | 36.2 | 72 | inactive
1700029F12Rik | 3 | 83.2 | 94.9 | inactive
2610528J11Rik | 1 | 52.8 | 75.6 | inactive
2610528J11Rik | 2 | 49.3 | 73.3 | inactive
2610528J11Rik | 3 | 95.5 | 90.6 | inactive
Zc3h13 | 1 | 92.2 | 76 | inactive
Zc3h13 | 2 | 62.2 | 63.6 | inactive
Zc3h13 | 3 | 94 | 102 | inactive
Fmo3 | 1 | 36.4 | 67.5 | inactive
Fmo3 | 2 | 75.3 | 83.9 | inactive
Fmo3 | 3 | 115 | 70.1 | inactive
Ins2 | 1 | 71.7 | 40.5 | inactive
Ins2 | 2 | 59.5 | 59.9 | inactive
Ins2 | 3 | 114 | 129 | inactive
Jph2 | 1 | 51.8 | 61.9 | inactive
Jph2 | 2 | 80.2 | 79.1 | inactive
Jph2 | 3 | 51.2 | 82.8 | inactive
Rnasek | 1 | 52.2 | 64.7 | inactive
Rnasek | 2 | 37.6 | 57.9 | inactive
Rnasek | 3 | 84.4 | 88 | inactive
Or5w15 | 1 | 41.7 | 59.1 | inactive
Or5w15 | 2 | 79.7 | 73.3 | inactive
Or5w15 | 3 | 119 | 83.2 | inactive
Lasp1 | 1 | 86.2 | 95.9 | inactive
Lasp1 | 2 | 59 | 66.6 | inactive
Ano2 | 1 | 47.2 | 50.5 | inactive
Ano2 | 2 | 67.9 | 127 | inactive
Ano2 | 3 | 0 | 194 | inactive
Pitx3 | 1 | 126 | 108 | active
Pitx3 | 2 | 65.1 | 94.3 | inactive
Sgo2a | 1 | 130 | 137 | active
Sgo2a | 2 | 85.7 | 85.1 | inactive
Sgo2a | 3 | 76.5 | 101 | inactive
